EPA's CvTdb concentration-time database
This continues a long series; more values of the same kind are listed elsewhere.

What was measured:
Test in all cases: concentration in plasma after dosing
Mouse [1] = details: 8 h; dosed: 2-Hydroxy-4-methoxybenzophenone; 50 mg/kg; iv; Male; B6C3F1
Rat [2] = details: dosed: 2-Hydroxy-4-methoxybenzophenone, 250 mg/kg, oral, Male, F344
Rat [3] = details: dosed: 2-Hydroxy-4-methoxybenzophenone, 100 mg/kg, oral, Male, F344
Mouse [4] = details: 1 h; dosed: 2-Hydroxy-4-methoxybenzophenone; 50 mg/kg; iv; Male; B6C3F1
Mouse [5] = details: 10 h; dosed: 2-Hydroxy-4-methoxybenzophenone; 500 mg/kg; oral; Female; B6C3F1
Mouse [6] = details: 5 min; dosed: 2-Hydroxy-4-methoxybenzophenone; 250 mg/kg; oral; Male; B6C3F1
Mouse [7] = details: 4 h; dosed: 2-Hydroxy-4-methoxybenzophenone; 50 mg/kg; iv; Female; B6C3F1
Mouse [8] = details: 7 h; dosed: 2-Hydroxy-4-methoxybenzophenone; 250 mg/kg; oral; Male; B6C3F1
Mouse [9] = details: dosed: 2-Hydroxy-4-methoxybenzophenone, 100 mg/kg, oral, Male, B6C3F1
Mouse [10] = details: 5 min; dosed: 2-Hydroxy-4-methoxybenzophenone; 50 mg/kg; iv; Female; B6C3F1
Rat [11] = details: dosed: 2-Hydroxy-4-methoxybenzophenone, 250 mg/kg, oral, Female, F344
Mouse [12] = details: 5 h; dosed: 2-Hydroxy-4-methoxybenzophenone; 250 mg/kg; oral; Female; B6C3F1
Mouse [13] = details: 2.5 min; dosed: 2-Hydroxy-4-methoxybenzophenone; 500 mg/kg; oral; Male; B6C3F1
Mouse [14] = details: 1 h; dosed: 2-Hydroxy-4-methoxybenzophenone; 500 mg/kg; oral; Male; B6C3F1
Mouse [15] = details: 0.5 h; dosed: 2-Hydroxy-4-methoxybenzophenone; 500 mg/kg; oral; Female; B6C3F1
Rat [16] = details: dosed: 2-Hydroxy-4-methoxybenzophenone, 500 mg/kg, oral, Male, F344
Mouse [17] = details: 0.5 h; dosed: 2-Hydroxy-4-methoxybenzophenone; 50 mg/kg; iv; Female; B6C3F1
Mouse [18] = details: 0.5 h; dosed: 2-Hydroxy-4-methoxybenzophenone; 250 mg/kg; oral; Male; B6C3F1
Mouse [19] = details: 4 h; dosed: 2-Hydroxy-4-methoxybenzophenone; 250 mg/kg; oral; Male; B6C3F1
Mouse [20] = details: 16 h; dosed: 2-Hydroxy-4-methoxybenzophenone; 50 mg/kg; iv; Male; B6C3F1
Rat [21] = details: dosed: 2-Hydroxy-4-methoxybenzophenone, 100 mg/kg, oral, Male, F344; remark: listed apart in the source
Rat [22] = details: dosed: 2-Hydroxy-4-methoxybenzophenone, 8 mg/kg, iv, Female, F344
Mouse [23] = details: 5 min; dosed: 2-Hydroxy-4-methoxybenzophenone; 500 mg/kg; oral; Male; B6C3F1
Mouse [24] = details: 1.5 h; dosed: 2-Hydroxy-4-methoxybenzophenone; 50 mg/kg; iv; Male; B6C3F1
Rat [25] = details: 1.5 h; dosed: Perfluorohexanoic Acid; 40 mg/kg; Male; F344
Rat [26] = details: dosed: Perfluorohexanoic Acid, 160 mg/kg, oral, Male, Harlan Sprague Dawley
Rat [27] = details: dosed: Perfluorohexanoic Acid, 40 mg/kg, Female, Harlan Sprague Dawley
Rat [28] = details: dosed: Perfluorohexanoic Acid, 40 mg/kg, oral, Male, Harlan Sprague Dawley
Rat [29] = details: dosed: Perfluorohexanoic Acid, 160 mg/kg, oral, Male, Harlan Sprague Dawley; remark: listed apart in the source
Rat [30] = details: dosed: Perfluorohexanoic Acid, 160 mg/kg, oral, Female, Harlan Sprague Dawley
Rat [31] = details: 1 h; dosed: Perfluorohexanoic Acid; 40 mg/kg; Male; F344
Rat [32] = details: 0.75 h; dosed: Perfluorohexanoic Acid; 40 mg/kg; Female; Harlan Sprague Dawley
Rat [33] = details: dosed: Perfluorohexanoic Acid, 160 mg/kg, oral, Female, Harlan Sprague Dawley; remark: listed apart in the source

O=C(c1ccccc1)c1ccc(O)cc1O [2,4-Dihydroxybenzophenone]
Details | concentration in plasma [ng/mL]
Mouse [1] | 94.8
Mouse [4] | 354
Mouse [5] | 58.2
Mouse [6] | 242
Mouse [7] | 71.2
Mouse [8] | 185
Mouse [10] | 3780

Details | concentration in plasma [ng/mL]
Mouse [9], 0.5 h | 323
Mouse [9], 0.75 h | 316
Mouse [9], 1 h | 282
Mouse [9], 1.5 h | 213
Mouse [9], 4 h | 170
Mouse [9], 5 h | 115
Mouse [9], 5 min | 330
Rat [2], 1.5 h | 361
Rat [2], 8 h | 76.7
Rat [3], 1.5 h | 135
Rat [3], 8 h | 46.3

COc1ccc(C(=O)c2ccccc2)c(O)c1 [2-Hydroxy-4-methoxybenzophenone]
Details | concentration in plasma [ng/mL]
Rat [11], 1.5 h | 327
Rat [11], 8 h | 12.8
Rat [16], 1 h | 3510
Rat [16], 8 h | 308
Rat [21], 0.5 h | 419
Rat [21], 1 h | 152
Rat [21], 1.5 h | 93.7
Rat [21], 2 h | 24.6
Rat [21], 5 h | 16.2
Rat [21], 5 min | 47.4
Rat [21], 6 h | 11.1
Rat [21], 8 h | 11.9
Rat [22], 5 min | 1070
Rat [22], 10 h | 30.7

Details | concentration in plasma [ng/mL]
Mouse [12] | 27.4
Mouse [13] | 22
Mouse [14] | 117
Mouse [15] | 1230
Mouse [17] | 2070
Mouse [18] | 231
Mouse [19] | 31.2
Mouse [20] | 7.13
Mouse [23] | 69.5
Mouse [24] | 559

O=C(O)C(F)(F)C(F)(F)C(F)(F)C(F)(F)C(F)(F)F [Perfluorohexanoic Acid]
Details | concentration in plasma [ng/mL]
Rat [25] | 54300
Rat [31] | 52600
Rat [32] | 28300

Details | concentration in plasma [ng/mL]
Rat [26], 0.75 h | 247000
Rat [26], 12 h | 7430
Rat [27], 0.5 h | 66300
Rat [27], 12 h | 53.1
Rat [28], 0.25 h | 33800
Rat [28], 6 h | 10500
Rat [29], 0.25 h | 181000
Rat [29], 6 h | 45800
Rat [30], 3 h | 52800
Rat [30], 5 min | 81000
Rat [33], 0.75 h | 101000
Rat [33], 12 h | 195
